PubChem BioAssay AID540256 (National Center for Advancing Translational Sciences (NCATS), 2011)
Among all 300,000 compounds or so, about 3,700 (1.2%) were called active. Inconclusive results, whose numbers are uncertain, are shown with a selection of clear calls. Calls come from the whole dose curve; tested in HEK293 cells. A potency beside an inconclusive call is a rough fit, not a confirmed value.

Test: qHTS for Inhibitors of binding or entry into cells for Lassa Virus; note: nearly all actives have a fitted effect of over 50% in size
Conditions: Lassa virus pseudotype entry inhibition, cell reporter; series mostly up to 37.9 µM
Potency is the fitted concentration of half-maximal effect.

| Structure (SMILES) | Potency |
| --- | --- |
| Cc1ccc(C(=O)NC(=S)Nc2ccc(-c3ccc(CO)o3)cc2)cc1 | inactive |
| c1ccc(CSc2nnc(-c3ccco3)n2Cc2ccco2)cc1 | inconclusive: 20.6 µM [activator, partial curve, poor fit] |
| O=C(Nc1ccccc1N1CCCCC1)c1cc(S(=O)(=O)N2CCOCC2)ccc1F | inconclusive: 11.2 µM [inhibitor, partial curve, poor fit] |
| CC1=[N+](C)c2c(ccc3cccnc23)C1(C)C | active: 5.62 µM |
| CCOC(=O)CSc1nnc(NC(=O)c2ccc3c(c2)OCO3)s1 | inconclusive: 7.94 µM [inhibitor, partial curve] |
| COc1ccc(Oc2cc(NC(=O)c3nn(C)cc3[N+](=O)[O-])cc([N+](=O)[O-])c2)cc1 | inconclusive: 3.98 µM [inhibitor, partial curve, poor fit] |
| CCOc1ccc(NS(=O)(=O)c2ccc(C(=O)NNC(=O)c3ccccc3O)cc2)cc1 | inconclusive: 8.91 µM [inhibitor, partial curve, poor fit] |
| Cc1ccc(-c2nc(-c3ccccn3)no2)cc1Cl | active: 1.41 µM |
| N#C/C(=C\c1ccc(-c2ccccc2[N+](=O)[O-])o1)C(=O)Nc1nc(-c2cccs2)cs1 | inconclusive: 11.2 µM [activator, partial curve, poor fit] |
| O=C(CN1CCCN(S(=O)(=O)c2ccc(F)cc2)CC1)Nc1ccccc1Br | inactive |
| CCCCNCCOCCOc1ccc(Cl)cc1Br | inconclusive: 12.6 µM [inhibitor, partial curve] |
| COC(=O)C1=C(C)NC(=O)NC1c1ccc(-c2ccccc2Cl)o1 (stereo unspecified) | inactive |
| COCCNC(=S)Nc1ccc(Cl)c(Cl)c1 | inactive |
| CCOC(=O)c1c(C)nc(C)c2c(=O)oc3ccccc3c12 | inactive |
| CCCC(=O)Nc1ccc(Br)cn1 | inconclusive: 14.1 µM [activator, partial curve, poor fit] |
| Cc1ccnc(NS(=O)(=O)c2ccc(NC(=O)c3cc(=O)c4ccc(C)c(C)c4o3)cc2)n1 | inactive |
| O=c1cc(CN2CCOCC2)c2ccccc2o1 | inconclusive: 0.791 µM [activator, full curve, poor fit] |
| COc1cc(C(=O)NCCOc2ccc(F)cc2)c(Br)c(OC)c1OC | inconclusive: 12.6 µM [inhibitor, partial curve, poor fit] |
| CC(=O)Nc1ccc(S(=O)(=O)N2CCN(c3cc(C)ccc3C)CC2)cc1 | inactive |
| COc1ccc(/C=N/NC(=O)c2ccncc2)cc1OC | inactive |
| COc1ccc(C(=O)OCC(=O)N(C)C2CCS(=O)(=O)C2)cc1S(=O)(=O)N1CCCc2ccccc21 (stereo unspecified) | inactive |

Some of the entries so far, in CSV form.
Structure (SMILES),Potency
Cc1ccc(C(=O)NC(=S)Nc2ccc(-c3ccc(CO)o3)cc2)cc1,inactive
CCOc1ccc(NS(=O)(=O)c2ccc(C(=O)NNC(=O)c3ccccc3O)cc2)cc1,"inconclusive: 8.91 µM [inhibitor, partial curve, poor fit]"
